Laboratory results published in patent publication US20080267967A1 (TRILLIUM THERAPEUTICS, published 2008).
These are yes or no findings as the source states them, for the method shown. Some results given as binding are weak or reduced against the parent protein; the word gives no strength. Sequences can lack the tags named with a protein.

Tests used:
[1] = target: T1, murine CD200R2b (murine); experiment: FACS, FITC-CD200Fc on COS cells transiently transfected with CD200R isoform cDNA
T1 sequence: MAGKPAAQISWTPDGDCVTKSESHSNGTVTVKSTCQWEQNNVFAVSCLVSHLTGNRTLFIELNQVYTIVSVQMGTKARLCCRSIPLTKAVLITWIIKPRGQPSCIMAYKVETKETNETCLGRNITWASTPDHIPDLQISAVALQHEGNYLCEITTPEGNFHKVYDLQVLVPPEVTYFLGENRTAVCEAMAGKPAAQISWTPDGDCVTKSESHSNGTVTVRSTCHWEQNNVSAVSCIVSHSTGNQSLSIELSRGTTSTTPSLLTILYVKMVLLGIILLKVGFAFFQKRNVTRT

[2] = target: T2, CD200 receptor (CD200R) on primary mouse cells, isoform not stated (mouse) (UniProt Q9ES57); experiment: FACS, LPS stimulated CD200r+ splenic Mph
T2 sequence: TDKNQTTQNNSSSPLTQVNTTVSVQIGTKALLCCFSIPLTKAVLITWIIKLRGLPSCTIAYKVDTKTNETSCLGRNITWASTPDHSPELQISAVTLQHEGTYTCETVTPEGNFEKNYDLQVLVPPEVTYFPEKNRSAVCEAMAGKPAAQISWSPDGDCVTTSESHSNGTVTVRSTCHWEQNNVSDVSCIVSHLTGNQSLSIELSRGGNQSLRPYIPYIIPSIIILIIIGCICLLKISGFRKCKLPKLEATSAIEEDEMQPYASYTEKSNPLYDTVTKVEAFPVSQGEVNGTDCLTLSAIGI

[3] = target: T2, CD200 receptor (CD200R) on primary mouse cells, isoform not stated (mouse); experiment: FACS, ConA-activated PLN cells and LPS-stimulated splenic macrophages; no binding above control with a 5-fold excess of unlabeled CD200:Fc
[4] = target: T2, CD200 receptor (CD200R) on primary mouse cells, isoform not stated (mouse); experiment: FACS with FITC-CD200:Fc on activated T cells
[5] = target: T1, murine CD200R2b (murine); experiment: FACS, FITC-CD200Fc on control COS cells and COS cells transiently transfected with CD200R isoforms

Measured: binding

B1: CD200Fc immunoadhesin (extracellular domain of CD200 linked to a murine IgG2a Fc region) (Fc fusion, mouse, UniProt O54901 31-232, looked up)
chain: QVEVVTQDERKALHTTASLRCSLKTSQEPLIVTWQKKKAVSPENMVTYSKTHGVVIQPAYKDRINVTELGLWNSSITFWNTTLEDEGCYMCLFNTFGSQKVSGTACLTLYVQPIVHLHYNYFEDHLNITCSATARPAPAISWKGTGTGIENSTESHFHSNGTTSVTSILRVKDPKTQVGKEVICQVLYLGNVIDYKQSLDKG
modifications: FITC-labelled in the binding assays
notes: extracellular domain; Made in a baculovirus system in Sf insect cells; also called FITC-CD200Fc; FITC-CD200:Fc; not shown: murine IgG2a Fc region; the ch
binds: [1] | [2] | [3] | [4] | [5]
